Where a name gives a salt, the structure may show the parent alone. This is one part of the list. Single values are uncertain, as repeats are few or missing.
system: hsa-miR-132-3p; experiment: miR-132-3p level in NGN2-iNs after compound treatment (TMM-normalised, ComBat batch-corrected) (batch-corrected normalised expression (arbitrary units)); higher = higher miR-132-3p expression; details: 10 µM; 24 h; human iPSC-derived NGN2 neurons (BR43)

SMILES	miR-132-3p level in NGN2-iNs
CCN(CC)CCNC(=O)c1c(C)[nH]c(/C=C2\C(=O)Nc3ccc(F)cc32)c1C [Sunitinib Malate]	0.404
COc1ccc(/C=C/C(=O)Nc2ccccc2C(=O)O)cc1OC [Tranilast]	-0.00792
CCOc1cc2ncc(C#N)c(Nc3ccc(F)c(Cl)c3)c2cc1NC(=O)/C=C/CN(C)C [Pelitinib (EKB-569)]	2
Cc1c(N(C)C)c(=O)n(-c2ccccc2)n1C [Amidopyrine]	-0.928
Cc1cc(/C=C/C#N)cc(C)c1Nc1ccnc(Nc2ccc(C#N)cc2)n1 [Rilpivirine]	-0.24
O=C1c2c(O)cccc2C([C@@H]2O[C@H](CO)[C@@H](O)[C@H](O)[C@H]2O)c2cc(CO)cc(O)c21 (stereo partly drawn) [Aloin]	-0.389
O=C(Nc1cccc(C(F)(F)F)c1)Nc1cc(S(=O)(=O)NC2CC2)ccc1-c1ccsc1	-0.338
CC(C(=O)O)c1ccc2c(c1)[nH]c1ccc(Cl)cc12 (stereo not drawn) [Carprofen]	0.795
CC(NC(=O)C(Cc1ccccc1)NC(=O)OCc1ccccc1)C(=O)CF (stereo not drawn)	-0.896
Cc1ccccc1C(=O)Nc1ccc(C(=O)N2CCCC(O)c3cc(Cl)ccc32)c(C)c1 (stereo not drawn) [Tolvaptan]	-1.07
COc1cc2c(N3CCN(C(=O)Nc4ccc(OC(C)C)cc4)CC3)ncnc2cc1OCCCN1CCCCC1 [Tandutinib (MLN518)]	0.219
Cc1cc(O)c2c(c1)C(=O)c1cccc(O)c1C2=O [Chrysophanic Acid]	0.664
NC(=O)c1cn(Cc2c(F)cccc2F)nn1 [Rufinamide]	-0.904
CC(C(=O)O)c1ccc(-c2ccccc2)c(F)c1 (stereo not drawn) [Flurbiprofen]	0.975
Cc1c(OCC(F)(F)F)ccnc1C[S@@+]([O-])c1nc2ccccc2[nH]1 [Dexlansoprazole]	-1.09
C[C@H]1O[C@@H](O[C@H]2[C@@H](O)C[C@H](O[C@H]3[C@@H](O)C[C@H](O[C@H]4CC[C@@]5(C)[C@H](CC[C@@H]6[C@@H]5C[C@@H](O)[C@]5(C)[C@@H](C7=CC(=O)OC7)CC[C@]65O)C4)O[C@@H]3C)O[C@@H]2C)C[C@H](O)[C@@H]1O [Digoxin]	3.2
C[C@]1(O)C[C@@H](c2nc(-c3ccc4ccc(-c5ccccc5)nc4c3)c3c(N)nccn32)C1 [Linsitinib (OSI-906)]	-0.106
O=C(C1CCCCC1)N1CC(=O)N2CCc3ccccc3C2C1 (stereo not drawn) [Praziquantel]	0.531
C[C@@H]1CCO[C@H]2Cn3cc(C(=O)NCc4ccc(F)cc4F)c(=O)c(O)c3C(=O)N12	-0.872
CNC(=O)c1cc(Oc2ccc(NC(=O)Nc3cc(C(C)(C)C)nn3-c3ccc4ncccc4c3)c(F)c2)ccn1 [Rebastinib (DCC-2036)]	0.263
CC(C)C[C@H](NC(=O)[C@@H](NC(=O)c1cccc(-c2ccccc2)n1)[C@@H](C)O)B(O)O	0.626
CN(C)CC(=O)Nc1ccc2[nH]c(=O)c3ccccc3c2c1	1.36
CNC(=O)c1cc(Oc2ccc(NC(=O)Nc3ccc(Cl)c(C(F)(F)F)c3)c(F)c2)ccn1 [Regorafenib (BAY 73-4506)]	-0.6
O=C(O)c1cc(/N=N/c2ccc(O)c(C(=O)O)c2)ccc1O [Olsalazine Sodium]	-0.805
O=C(CCc1ccc(O)cc1)c1c(O)cc(O)cc1O	-0.433

SMILES	miR-132-3p level in NGN2-iNs
CC[C@H](C)[C@H](N)C1=N[C@H](C(=O)N[C@@H](CC(C)C)C(=O)N[C@H](CCC(=O)O)C(=O)N[C@H](C(=O)N[C@H]2CCCCNC(=O)[C@H](CC(N)=O)NC(=O)[C@@H](CC(=O)O)NC(=O)[C@H](Cc3cnc[nH]3)NC(=O)[C@@H](Cc3ccccc3)NC(=O)[C@H]([C@@H](C)CC)NC(=O)[C@@H](CCCN)NC2=O)[C@@H](C)CC)CS1 [Bacitracin]	-1.15
O=C(NCc1ccccc1)c1csc(Nc2ccncn2)n1 [Thiazovivin]	0.885
CNC[C@H](O)c1ccc(O)c(O)c1 [Epinephrine bitartrate]	0.102
CNC[C@H](O)c1ccc(O)c(O)c1 [Epinephrine HCl]	0.786
CC(S)C(=O)NCC(=O)O (stereo not drawn) [Tiopronin]	0.244
CCc1cc(Nc2nccc(-c3c(-c4ccc(OC)c(C(=O)Nc5c(F)cccc5F)c4)nc4ccccn34)n2)c(OC)cc1N1CCC(N2CCN(S(C)(=O)=O)CC2)CC1	0.338
Nc1ccn([C@H]2CC[C@@H](CO)O2)c(=O)n1 [Zalcitabine]	0.171
C[C@@H](O)[C@H]1C(=O)N2C(C(=O)O)=C(S[C@@H]3CN[C@H](CNS(N)(=O)=O)C3)[C@H](C)[C@H]12 [Doripenem Hydrate]	-1.2
CC(C)(C#N)c1cc(Cn2cncn2)cc(C(C)(C)C#N)c1 [Anastrozole]	0.34
COc1cc2nccc(Oc3ccc(NC(=O)Nc4cc(C)on4)c(Cl)c3)c2cc1OC [Tivozanib (AV-951)]	0.0531
CNC(=O)c1cccc(-c2ccc3c(N4CCOC[C@@H]4C)nc(N4CCOC[C@@H]4C)nc3n2)c1 [Vistusertib (AZD2014)]	-0.32
CN(C)CCOC(C)(c1ccccc1)c1ccccn1 (stereo not drawn) [Doxylamine Succinate]	1.34
COc1cccc(-c2cc(=O)c3ccccc3o2)c1N	0.608
CC(C)(C)[N+]([O-])=Cc1ccc(S(=O)(=O)O)cc1S(=O)(=O)O [Disufenton sodium]	-0.0101
CN1CCN(C(c2ccccc2)c2ccccc2)CC1 [Cyclizine 2HCl]	-0.539
CC(C)OC(=O)C1=CN(C(=O)c2ccc(F)c(F)c2)CC(C)(C)c2c1[nH]c1ccccc21 [Turofexorate Isopropyl (XL335)]	1.31
Cc1ccc(F)c(NC(=O)Nc2ccc(-c3cccc4[nH]nc(N)c34)cc2)c1 [Linifanib (ABT-869)]	-0.134
C[C@]12CC[C@@H]3c4ccc(OC(=O)c5ccccc5)cc4CC[C@H]3[C@@H]1CC[C@@H]2O [Estradiol Benzoate]	-0.148
CC[C@@H](C)Nc1cc(C(=O)N[C@H]2C[C@H]3CC[C@@H](C2)N3c2ccc(C(=O)C3CC3)cn2)c(C)cc1C(N)=O	2
Cc1ccc(NC(=O)c2cccc(C(C)(C)C#N)c2)cc1Nc1ccc2ncn(C)c(=O)c2c1	0.242
OCCN(CCO)c1nc(N2CCCCC2)c2nc(N(CCO)CCO)nc(N3CCCCC3)c2n1 [Dipyridamole]	0.467
CNc1nc(Nc2cn(C(C)(C)C#N)nc2C)ncc1C(F)(F)F	-0.303
COCCCN1CCC(NC(=O)c2cc(Cl)c(N)c3c2OCC3)CC1 [Prucalopride]	-0.963
COCCCN1CCC(NC(=O)c2cc(Cl)c(N)c3c2OCC3)CC1 [Prucalopride Succinate]	0.515
O=C(Nc1ccncc1)c1cc([N+](=O)[O-])ccc1Cl	-1.16

In a second layout: results already given
O=C(NCc1ccccc1)c1csc(Nc2ccncn2)n1 [Thiazovivin]
  miR-132-3p level in NGN2-iNs: 0.885
CNC[C@H](O)c1ccc(O)c(O)c1 [Epinephrine bitartrate]
  miR-132-3p level in NGN2-iNs: 0.102
CNC[C@H](O)c1ccc(O)c(O)c1 [Epinephrine HCl]
  miR-132-3p level in NGN2-iNs: 0.786

Later entries

SMILES	miR-132-3p level in NGN2-iNs
O=C(CCCN1CCN(c2ccccn2)CC1)c1ccc(F)cc1 [Azaperone]	2.32
C[C@H](CCC(=O)O)[C@H]1CC[C@H]2[C@@H]3[C@@H](O)C[C@@H]4C[C@H](O)CC[C@]4(C)[C@H]3CC[C@]12C [Ursodiol]	1.51
Cc1ccc(=O)n(-c2ccccc2)c1 [Pirfenidone]	0.903
COc1ccc(C2CC(=O)c3c(O)cc(OC4OC(COC5OC(C)C(O)C(O)C5O)C(O)C(O)C4O)cc3O2)cc1OC (stereo not drawn) [Methyl-Hesperidin]	1.15
CN(C)C(=O)[C@H](O)[C@H](Cc1ccccc1)NC(=O)c1cc2cc(Cl)ccc2[nH]1	0.0114
O=C(Oc1cc(S(=O)(=O)c2ccccc2)ccc1[N+](=O)[O-])c1ccc(Cl)cc1	-0.345
N#CCNC(=O)c1ccc(-c2ccnc(Nc3ccc(N4CCOCC4)cc3)n2)cc1 [Momelotinib (CYT387)]	-3.44
OCc1c[nH]c2ccccc12 [Indole-3-carbinol]	-0.837
CS(=O)(=O)OCCCCOS(C)(=O)=O [Busulfan]	1.76
Cc1ncc(-c2ccnc(Nc3ccc(S(C)(=O)=O)cc3)n2)n1C(C)C	1.72
C[C@@H](O[C@H]1OCCN(Cc2nn(P(=O)(O)O)c(=O)[nH]2)[C@H]1c1ccc(F)cc1)c1cc(C(F)(F)F)cc(C(F)(F)F)c1 [Fosaprepitant dimeglumine salt]	-0.913
CCC(C)(Oc1ccc(C2(c3ccc(OC(C)(CC)C(=O)O)cc3)CCCCC2)cc1)C(=O)O (stereo not drawn) [Clinofibrate]	-0.589
CN1CCc2c(c3ccccc3n2Cc2ccc(C(=O)NO)cc2)C1 [Tubastatin A]	-1.12
CN1CCc2c(c3ccccc3n2Cc2ccc(C(=O)NO)cc2)C1 [Tubastatin A HCl]	-0.72
CN(C)C(=O)c1ccc(S(=O)(=O)c2ccc(NC(=O)C(C)(O)C(F)(F)F)c(Cl)c2)cc1 (stereo not drawn)	-0.744
Cc1c(CN2CCN(C(=O)[C@H](C)O)CC2)sc2c(N3CCOCC3)nc(-c3cnc(N)nc3)nc12 [Apitolisib (GDC-0980)]	1.23
Cc1cnc(-c2cc(N3CCN(C(=O)CCS(C)(=O)=O)CC3)ncc2Cl)c(C)c1	-0.341
c1ccc2c(CC3=NCCN3)cccc2c1 [Naphazoline HCl]	0.291
CC(C=CC(=O)NO)=CC(C)C(=O)c1ccc(N(C)C)cc1 (stereo not drawn) [Trichostatin A (TSA)]	-0.591
CCN(CC)CC(=O)Nc1c(C)cccc1C [Lidocaine]	-1.87
CC(=O)NS(=O)(=O)c1ccc(N)cc1 [Sulfacetamide Sodium]	-0.726
C=C1CC[C@@H]2[C@](C)(CO)[C@H](O)CC[C@@]2(C)[C@@H]1C/C=C1/C(=O)OC[C@H]1O [Andrographolide]	1.6
OCc1ccccc1O[C@@H]1O[C@H](CO)[C@@H](O)[C@H](O)[C@H]1O [Salicin]	1.18
